Measurements as given in article PMC12334043.
No constants are given. Whether binding was seen depends on the method and setting. In cells and extracts the contact can be indirect. Some entries that bind do so weakly or less than the wild type. Tags and fused reporters may be left off the sequences shown.

The chains behind the UniProt entries cited, without tags or fusion partners.
UniProt Q40467: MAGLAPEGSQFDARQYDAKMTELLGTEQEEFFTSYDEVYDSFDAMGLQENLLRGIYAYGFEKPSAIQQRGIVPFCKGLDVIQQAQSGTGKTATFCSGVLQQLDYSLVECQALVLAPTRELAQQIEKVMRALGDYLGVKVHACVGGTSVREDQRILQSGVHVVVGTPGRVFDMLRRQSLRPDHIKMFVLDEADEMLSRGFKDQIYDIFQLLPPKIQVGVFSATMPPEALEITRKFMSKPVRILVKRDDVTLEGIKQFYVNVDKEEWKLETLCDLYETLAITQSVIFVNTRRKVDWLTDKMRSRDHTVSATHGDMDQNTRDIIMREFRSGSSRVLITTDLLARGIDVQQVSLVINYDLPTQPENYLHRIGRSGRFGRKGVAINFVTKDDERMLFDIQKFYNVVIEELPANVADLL

Assays:
[1] = biological target: T1, turnip crinkle virus coat protein with an HA epitope (turnip crinkle virus) (UniProt P06663); test: co-IP; HA- and 3xMyc-tagged proteins transiently co-expressed in N. benthamiana leaves, 3 dpi; extract in 25 mM Tris HCl pH 7.4, 150 mM NaCl, 1 mM EDTA, 1% NP-40, 5% glycerol; Pierce anti-HA magnetic beads, 90 min at room temperature; blots with anti-HA and anti-c-Myc
T1 sequence: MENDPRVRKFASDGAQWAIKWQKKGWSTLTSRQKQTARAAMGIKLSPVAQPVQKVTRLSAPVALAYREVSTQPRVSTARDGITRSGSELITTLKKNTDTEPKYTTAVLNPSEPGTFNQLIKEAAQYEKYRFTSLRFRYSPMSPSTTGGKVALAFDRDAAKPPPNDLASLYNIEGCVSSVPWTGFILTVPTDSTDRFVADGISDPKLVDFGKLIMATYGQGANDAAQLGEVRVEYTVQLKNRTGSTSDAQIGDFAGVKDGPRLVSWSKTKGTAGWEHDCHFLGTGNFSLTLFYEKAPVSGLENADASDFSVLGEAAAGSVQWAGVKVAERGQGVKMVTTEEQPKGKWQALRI

[2] = biological target: T2, CiLV-C p29 with a C-terminal HA epitope, transiently expressed (pMOG-p29:HA) (citrus leprosis virus C) (UniProt Q1KZ58); test: as above
T2 sequence: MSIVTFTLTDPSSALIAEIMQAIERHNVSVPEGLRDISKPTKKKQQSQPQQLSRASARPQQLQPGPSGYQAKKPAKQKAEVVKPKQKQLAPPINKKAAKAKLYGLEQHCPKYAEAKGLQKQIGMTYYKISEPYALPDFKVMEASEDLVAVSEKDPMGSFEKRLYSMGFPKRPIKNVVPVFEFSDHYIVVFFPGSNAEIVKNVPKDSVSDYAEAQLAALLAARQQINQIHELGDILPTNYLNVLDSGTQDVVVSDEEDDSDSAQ

eIF4A with a 3xMyc tag at its N- or C-terminus (co-IP with TCV CP) (from UniProt Q40467 1-413)
binding [1]: binds

eIF4A with a C-terminal 3xMyc tag (from UniProt Q40467 1-413)
binding [2]: binds
